Data as given in PubChem BioAssay AID1347076 (National Center for Advancing Translational Sciences (NCATS), 2019).
Out of some 400,000 compounds screened, about 13,000 (3.2%) were called active. Inconclusive means that the source gave no clear call. Such entries were picked first, then a sample of the others. The call rests on the fitted dose curve; in most records, active means well fitted cell-killing curve with a large enough effect; inconclusive means small, poorly fitted or top-dose-only effect, or effect the other way; inactive means flat fitted curve, though single readings scatter. Potencies beside an inconclusive call are fits to weak or partial responses and may not hold up.

test: qHTS assay for MDR1-selective chemotherapeutics: Primary screen using the drug-selected MDR subline cells KB-V1; settings: KB-V1 MDR cells viability, CellTiter-Glo, 72 h; activity change, negative = cytotoxicity: at 46.1 µM (top of the series); further: nearly all actives have a fitted effect of over 60% in size
Method in brief: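 Drug-selected KB-V1 cells, grown in DMEM lacking phenol red with 10% FBS, receive compound titrations; after three days at 37 degrees C, surviving cell ATP is quantified by CellTiter-Glo luminescence and responses normalized and curve-fitted.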
On the % scale 0 is the no-effect control and ±100 the full control effect; potency means the concentration at half of the fitted maximal effect.

For CCC(=O)N(Cc1ccco1)Cc1cc2cccc(C)c2n2nnnc12, which “activity change, negative = cytotoxicity” value is on record?
The value was inactive: -25.9%.

With Cc1ccc(Cl)cc1N1CCN(C(=O)C2CCN(S(C)(=O)=O)CC2)CC1 as the molecule, how does the “activity change, negative = cytotoxicity” value read?
The value was inactive: -9.08%.

Which Potency does the source give for CN(C)CCCC(=O)c1ccc2c(c1)OCO2 here?
The Potency was inconclusive: 20.6 µM [rising, partial curve, poor fit].

Which “activity change, negative = cytotoxicity” value does the source give for COc1cc(OC)c(/C=C/c2cc[n+](C)c3ccccc23)c(OC)c1 here?
The value was inactive: 2.98%.

Which “activity change, negative = cytotoxicity” value does the source give for CCOc1ncccc1C(=O)OCC(=O)c1cc(OC)c(OC)c(OC)c1 here?
The value was inactive: 13.4%.

For O=C(Cn1cc(C(F)(F)F)ccc1=O)N/N=C/c1ccccc1O, which “activity change, negative = cytotoxicity” value is on record?
Its value is inactive: -31.8%.

With COC(=O)C1=NN(C(=O)c2ccccc2)C(C)(O)C1 (stereo not drawn) as the molecule, how does the “activity change, negative = cytotoxicity” value read?
The value was inactive: -9.52%.

Which Potency does the source give for O=C(COC(=O)c1c(F)cccc1F)Nc1ccc(N2CCCCC2)cc1 here?
Its Potency is inconclusive: 29.1 µM [rising, single point].

For O=C(Nc1nnc(-c2cccs2)o1)c1cccc(Oc2ccccc2)c1, which “activity change, negative = cytotoxicity” value is on record?
Its value is inactive: -18.3%.

Which “activity change, negative = cytotoxicity” value does the source give for C=CCNC(=S)NNC(=O)COc1cccc(Cl)c1 here?
Its value is inactive: -3.82%.

With CC(=O)c1cc2c(cc1NC(=O)Cn1nc(C)c(C)c(C#N)c1=O)OCO2 as the molecule, how does the Potency read?
Its Potency is inconclusive: 18.4 µM [cytotoxic, partial curve, poor fit].

Which Potency does the source give for CC1CC(C)(C)NC(=S)N1CCCC(=O)Nc1ccc(Cl)cc1 (stereo not drawn) here?
Its Potency is inconclusive: 20.6 µM [cytotoxic, partial curve].

For Cc1nn(-c2cccc(C(F)(F)F)c2)c(=O)c2noc(C)c12, which “activity change, negative = cytotoxicity” value is on record?
The value was inactive: -2.78%.

Which “activity change, negative = cytotoxicity” value does the source give for COc1ccc(CN2CCCCCC2)cc1OC here?
Its value is inactive: 5.52%.

For Cc1ccc(/C(N)=N/OC(=O)CCCc2ccccc2)cc1, which Potency is on record?
Its Potency is inconclusive: 13 µM [rising, partial curve, poor fit].

Which Potency does the source give for CSc1ccc(CN2CCC(CO)(Cc3ccc(Cl)cc3)CC2)cc1 here?
The Potency was inconclusive: 32.6 µM [cytotoxic, single point].

With C=CCNC(=O)c1cn(CC)c2cc(N3CCN(C(=O)c4ccco4)CC3)c(F)cc2c1=O as the molecule, how does the Potency read?
Its Potency is inconclusive: 32.6 µM [cytotoxic, single point].

Which Potency does the source give for Fc1ccc(CNCCC(Cc2ccccc2)c2ccco2)cc1 (stereo not drawn) here?
The Potency was inconclusive: 29.1 µM [cytotoxic, single point].

Which Potency does the source give for COc1ccc(-c2cc(C(=O)N3CCN(c4ncccn4)CC3)c3ccccc3n2)c(OC)c1 here?
The Potency was inconclusive: 2.59 µM [cytotoxic, partial curve, poor fit].

With COc1cc(CN2CCNC(=O)C2CC(=O)N(C)Cc2ncc[nH]2)cc(OC)c1 (stereo not drawn) as the molecule, how does the Potency read?
Its Potency is inconclusive: 2.31 µM [rising, partial curve, poor fit].

Which “activity change, negative = cytotoxicity” value does the source give for Cc1ccc(NC(=O)Nc2nnc(N(C)Cc3ccccc3)s2)cc1 here?
Its value is inactive: -5.76%.

For CC1(C(=O)NS(=O)(=O)c2ccc(F)cc2F)CCN1C(=O)c1ccco1 (stereo not drawn), which “activity change, negative = cytotoxicity” value is on record?
The value was inactive: 3.52%.

With CCN(C[C@H]1N[C@@](Cc2ccccc2)(C(=O)OC)[C@H]2C(=O)N(C)C(=O)[C@@H]12)C(=O)C1CCCCC1 as the molecule, how does the “activity change, negative = cytotoxicity” value read?
Its value is inactive: -3.06%.

Which Potency does the source give for COc1ccc2c(=O)c(-c3cnn(-c4ccccc4)c3)c(C)oc2c1 here?
The Potency was inconclusive: 13 µM [cytotoxic, single point].

Which “activity change, negative = cytotoxicity” value does the source give for COc1cc2ccccc2cc1C(=O)N1CC(C)OC(C)C1 (stereo not drawn) here?
Its value is inactive: -19.4%.

For COc1cccc(C(=O)NC(=S)Nc2ccc3c4c(cccc24)CC3)c1, which “activity change, negative = cytotoxicity” value is on record?
The value was inactive: -15.5%.

Which Potency does the source give for CN(C)CCCN(C(=O)CCSc1ccccc1)c1nc2cc3c(cc2s1)OCO3 here?
The Potency was inconclusive: 8.2 µM [cytotoxic, partial curve, poor fit].

Which “activity change, negative = cytotoxicity” value does the source give for CN(C(=O)c1cc(-c2ccccc2O)on1)c1ccccc1 here?
Its value is inactive: -10.6%.

With Cc1ccc(S(=O)(=O)N(C)C)cc1NC(=O)c1cc(S(=O)(=O)N2CCCCC2)ccc1N1CCOCC1 as the molecule, how does the “activity change, negative = cytotoxicity” value read?
Its value is inactive: 1.9%.

With COc1ccc(C(C)=O)cc1CSCCC(=O)O as the molecule, how does the Potency read?
The Potency was inconclusive: 32.6 µM [rising, partial curve, poor fit].

Which Potency does the source give for CCC1=NN(C(=O)c2ccccc2O)C(O)(c2ccccc2)C1 (stereo not drawn) here?
The Potency was inconclusive: 23.1 µM [cytotoxic, single point].

Which “activity change, negative = cytotoxicity” value does the source give for CCOc1ccccc1N1CCN(C(=O)CCCc2nc3ccccc3s2)CC1 here?
The value was inactive: -27.4%.

With O=C(NC1CCN(C(=O)N2c3ccccc3Sc3ccccc32)CC1)c1ccccc1F as the molecule, how does the Potency read?
The Potency was inconclusive: 29.1 µM [cytotoxic, single point].

With C[C@H](NC(=O)c1ccc(C(C)(C)C)cc1)C(=O)N1CCN(C/C=C/c2ccccc2)CC1 as the molecule, how does the Potency read?
Its Potency is inconclusive: 29.1 µM [cytotoxic, single point].

With Cc1nc(SCC(=O)Nc2cccnc2Cl)nc(C)c1C as the molecule, how does the Potency read?
Its Potency is inconclusive: 11.6 µM [cytotoxic, partial curve, poor fit].

Which “activity change, negative = cytotoxicity” value does the source give for Cc1cc(C(=O)Cn2cnc3ccc(Cl)cc3c2=O)c(C)n1C1CC1 here?
Its value is inactive: 0.0179%.

With Cc1cc(C)c2oc(C(=O)N(Cc3ccc(F)cc3)C3CCS(=O)(=O)C3)cc(=O)c2c1 (stereo not drawn) as the molecule, how does the Potency read?
The Potency was inconclusive: 3.66 µM [cytotoxic, partial curve, poor fit].

For COC(=O)C1=CN(c2ccc3c(c2)OCO3)C(N)=C(C#N)C1c1cccc(F)c1 (stereo not drawn), which Potency is on record?
The Potency was active: 3.66 µM.

With COCCCNCC1C(Oc2ccc(Cl)cc2)C(=O)N1c1ccccc1C (stereo not drawn) as the molecule, how does the “activity change, negative = cytotoxicity” value read?
Its value is inactive: -2.78%.

For Cc1cc(=O)[nH]c2nnc(SCC(=O)N3CC(C)OC(C)C3)n12 (stereo not drawn), which Potency is on record?
The Potency was inconclusive: 2.06 µM [rising, full curve, poor fit].

Which Potency does the source give for CCOC(=O)c1c(C)oc2ccc(N(C(=O)Oc3ccccc3)S(=O)(=O)c3ccccc3)cc12 here?
The Potency was inconclusive: 25.9 µM [cytotoxic, single point].

Which Potency does the source give for c1ccc(-c2nc(NCC3CCCO3)c3ccccc3n2)nc1 (stereo not drawn) here?
The Potency was inconclusive: 0.891 µM [cytotoxic, full curve, poor fit].

For COc1ccccc1Nc1ccc2nonc2c1[N+](=O)[O-], which “activity change, negative = cytotoxicity” value is on record?
The value was inactive: -0.355%.

For CCC(=O)N1CCc2cc(S(=O)(=O)NCCC(=O)N3CCN(c4cccc(C)c4)C(C)C3)ccc21 (stereo not drawn), which “activity change, negative = cytotoxicity” value is on record?
The value was inactive: -22.9%.

With O=C(c1ccccc1)c1ccc(OCC(O)CN2CCN(S(=O)(=O)N3CCCCC3)CC2)cc1 (stereo not drawn) as the molecule, how does the Potency read?
Its Potency is active: 2.06 µM.

Which Potency does the source give for CCN1C(=O)S/C(=C/c2ccc(Sc3nc4ccccc4[nH]3)o2)C1=O here?
The Potency was inconclusive: 16.4 µM [cytotoxic, single point].

With COc1ccc(NS(=O)(=O)c2cc(NC(=O)C3=NN(c4ccccc4)C(=O)CC3)ccc2C)cc1 as the molecule, how does the Potency read?
The Potency was inconclusive: 11.6 µM [cytotoxic, partial curve].

Which Potency does the source give for CCn1cc(S(=O)(=O)CC(=O)Nc2ccc(OC)cc2)c2ccccc21 here?
The Potency was inconclusive: 0.0517 µM [rising, full curve].

Which Potency does the source give for Cc1ccccc1OCCSCc1nc2ccccc2[nH]1 here?
Its Potency is inconclusive: 20.6 µM [cytotoxic, partial curve, poor fit].

With COC(=O)Nc1sc2c(c1C(=O)NC1CC1)CCCCCC2 as the molecule, how does the Potency read?
Its Potency is active: 23.1 µM.

Which Potency does the source give for Cc1ccc(S(=O)(=O)n2cnc3ccccc32)cc1 here?
Its Potency is inconclusive: 4.61 µM [rising, partial curve, poor fit].

With CCCCc1nc2sc3c(SCC(=O)NCc4ccco4)ncnc3c2c2c1CCC2 as the molecule, how does the Potency read?
The Potency was inconclusive: 7.94 µM [cytotoxic, partial curve, poor fit].

With Fc1ccc(N2CCN(C(=S)NCC3CCCO3)CC2)cc1 (stereo not drawn) as the molecule, how does the Potency read?
Its Potency is inconclusive: 23.1 µM [cytotoxic, single point].

Which Potency does the source give for COc1ccccc1NC(=O)C(C)Nc1ccc(C)c(Cl)c1 (stereo not drawn) here?
The Potency was inconclusive: 10.3 µM [cytotoxic, partial curve, poor fit].

With Cc1oc(-c2ccc(Cl)cc2)nc1CS(=O)CC(=O)NC(C)c1ccccc1 (stereo not drawn) as the molecule, how does the activity change, negative = cytotoxicity read?
Its activity change, negative = cytotoxicity is inconclusive: 31.7%.

For Cc1occc1C(=O)Nc1c(F)cc(F)cc1Br, which Potency is on record?
The Potency was inconclusive: 20.6 µM [cytotoxic, single point].

For Cc1cc(C)cc(NC(=O)CSc2nccn2-c2ccccc2)c1, which Potency is on record?
The Potency was inconclusive: 29.1 µM [cytotoxic, single point].

For Nc1cc(C(F)(F)F)ccc1NCCc1ccccn1, which “activity change, negative = cytotoxicity” value is on record?
The value was inactive: -2.01%.

For Cc1ccccc1N1CC(C(=O)Nc2ccncc2)CC1=O (stereo not drawn), which “activity change, negative = cytotoxicity” value is on record?
Its value is inactive: 3.24%.

With Cc1ccc(SCC(=O)NCCC2=CCCCC2)cc1 as the molecule, how does the Potency read?
Its Potency is inconclusive: 29.1 µM [cytotoxic, single point].

For CCOC(=O)N1CCN(C(=O)C2CCN(C(=O)c3ccc(C(C)(C)C)cc3)CC2)CC1, which “activity change, negative = cytotoxicity” value is on record?
The value was inactive: -18.2%.

For CC(C)CC1C(=O)N(Cc2cn(CCC3OCCCO3)nn2)CCS(=O)(=O)N1Cc1ccc(-c2ccc(Cl)nc2)cc1 (stereo not drawn), which Potency is on record?
Its Potency is inconclusive: 29.1 µM [cytotoxic, single point].

For CCc1ccc(NC(=O)C(C)OC(=O)/C=C/c2ccc(O)c(OC)c2)cc1 (stereo not drawn), which “activity change, negative = cytotoxicity” value is on record?
The value was inactive: -9.76%.

Which Potency does the source give for CCN(Cc1ccccc1)C(=O)c1ccc(CNS(=O)(=O)c2ccc(C)cc2)cc1 here?
The Potency was active: 18.4 µM.

For CCOC(=O)c1[nH]c(COC(=O)c2ccccc2NC(=O)c2ccco2)c(C(=O)OCC)c1C, which Potency is on record?
Its Potency is inconclusive: 25.9 µM [cytotoxic, single point].

For CCc1ccc(S(=O)(=O)Nc2c(C)n(C)n(-c3ccccc3)c2=O)cc1, which “activity change, negative = cytotoxicity” value is on record?
Its value is inactive: 19.1%.

Which Potency does the source give for Cc1cccc2nc(-c3cccnc3)c(Nc3ccc(C(C)C)cc3)n12 here?
Its Potency is inconclusive: 13 µM [cytotoxic, partial curve, poor fit].

With CCOc1ccc(CN2CCN(Cc3[nH]c4ccccc4c3C)CC2CCO)cc1 (stereo not drawn) as the molecule, how does the Potency read?
Its Potency is inconclusive: 29.1 µM [cytotoxic, single point].

For CN(C(=O)COC(=O)c1ccccc1Nc1ccccc1)C1CCS(=O)(=O)C1 (stereo not drawn), which “activity change, negative = cytotoxicity” value is on record?
The value was inactive: 3.58%.

For O=C1N=C(N2CCOCC2)S/C1=C/c1cccs1, which “activity change, negative = cytotoxicity” value is on record?
The value was inactive: 4.4%.

Which Potency does the source give for O=C(Nc1ccc(F)cc1)N(Cc1cccs1)Cc1cc2cc3c(cc2[nH]c1=O)OCO3 here?
The Potency was inconclusive: 2.06 µM [cytotoxic, partial curve, poor fit].

With CC1=C(C(=O)N2CCOCC2)CC(CC(=O)NC2CC2)C(=O)N1Cc1ccccc1 (stereo not drawn) as the molecule, how does the Potency read?
Its Potency is inconclusive: 16.4 µM [rising, partial curve, poor fit].

For Cn1c2c(c(=O)n(C)c1=O)C(c1ccc(Br)cc1)Nc1ccccc1O2 (stereo not drawn), which Potency is on record?
The Potency was inconclusive: 11.6 µM [cytotoxic, partial curve].
